# Assay results from PubChem BioAssay AID1259415 (National Center for Advancing Translational Sciences (NCATS), 2018).
# In all, about 410,000 compounds went through this assay and about 18,000 (4.4%) were called active. The shares of active, inactive and inconclusive entries below differ from those in the screen. No stated cut-off is given here; in the data, active means activity change below about -60%; inconclusive means no clear call, values can overlap the other calls; inactive means above about -39%.
# Experiment: qHTS Assay for inhibitors of the human cytomegalovirus (HCMV)
# Settings: HFF cells, HCMV-luciferase reporter, 72 h; at 57.5 µM; active compounds read low
# Method in brief: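 Compounds were evaluated in HFFs infected with an HCMV luciferase reporter virus (MOI 1 PFU/cell). Luciferase in lysates collected 72 h post infection served as the replication measure.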
# On the % scale 0 is the no-effect control and ±100 the full control effect.
row,SMILES,"activity change, negative = inhibition"
1,CCOc1ccc(NC(=O)CN2CCCN(Cc3cc(C)ccc3C)S2(=O)=O)cc1,inconclusive: -43.5%
2,C=CC[C@@H](Cc1ccc(F)cc1)C(=O)OC[C@H]1CCCN1C(=O)[C@H](CC=C)CC(=O)NCCO,inconclusive: -40.1%
3,NC(=O)N(N)c1nc(N2CCCC2)nc(N2CCCC2)n1,inactive: 2.37%
4,Nc1nc(CSCc2ccccc2)nc(N2CCOCC2)n1,inactive: 93%
5,Cc1cc(NC(=O)CSc2nc(=O)n3cc(Cl)ccc3n2)no1,active: -97.5%
6,COc1ccccc1N1C(=O)S/C(=C\c2cc(C)n(C)c2C)C1=O,inactive: 22.6%
7,Cc1ccc2c(=O)c(C(=O)c3cccc(Cl)c3)cn(CC(=O)Nc3ccc4c(c3)OCCO4)c2n1,inactive: 27.7%
8,Cn1cc(S(=O)(=O)c2cccc(Cl)c2)c(=O)c2cc(F)c(N3CCN(c4ccccc4)CC3)cc21,inconclusive: -40.1%
9,COc1ccc(CCNC(=O)c2cccc(S(=O)(=O)N3CCCCCC3)c2)cc1,inconclusive: -42.1%
10,Cc1ccc2cc3cc(C(=O)NCCCN4CCCC4=O)oc3nc2c1,inconclusive: -58.7%
11,Cc1nn(-c2ccccc2)c(C)c1/C=N/n1c(-c2ccccc2Br)n[nH]c1=S,inactive: -19.2%
12,O=C(NC(C(=O)N/N=C/c1cc([N+](=O)[O-])ccc1O)c1n[nH]c(=O)c2ccccc12)c1ccccc1 (centres undefined),active: -89.1%
13,O=C1CCn2c1c(O)c1ccccc1c2=O,inactive: -13.2%
14,COc1ccc(N2CCN(C(=O)c3cc4c(s3)-c3ccccc3OC4)CC2)cc1,inconclusive: -46.3%
15,O=C(Cn1cnc2ccccc21)N/N=C/C(Br)=C/c1ccccc1,active: -66.3%
16,CCSc1nsc(NC(=O)Nc2ccccc2Cl)n1,inactive: 29%
17,O=C1/C(=C/c2cccnc2)CCc2c1[nH]c1ccccc21,active: -76.3%
18,CCOc1ccccc1NC(=O)CSc1ccc(-c2sc(C)nc2C)nn1,inconclusive: -47.7%
19,Cc1ccc(S(=O)(=O)CCC(=O)Nc2ccc3nc(C)sc3c2)cc1,inactive: -31.7%
20,Cc1ccc(NC(=O)C(c2ccccc2)N2CCN(CC(=O)NC3CC3)CC2)cc1 (centres undefined),inactive: -10.3%
21,Cc1cc(C)n(-c2ccc(C(=O)Nc3ccc(C)c(S(=O)(=O)N(C)C)c3)cc2)n1,active: -80.7%
22,CC(NC(=O)C(c1ccccc1)c1ccccc1)c1ccc(S(N)(=O)=O)cc1 (centres undefined),inconclusive: -41.1%
23,COC(=O)c1sc(NC(=O)/C=C/c2ccccc2Cl)nc1C,inactive: 4.47%
24,CCOc1ccccc1NC(=O)CSc1nc2cc(O)ccc2c(=O)n1-c1ccc(OC)c(OC)c1,active: -71.8%
25,O=S(=O)(C(=CNc1ccccc1)S(=O)(=O)c1ccccc1)c1ccccc1,inconclusive: -54.9%
26,COc1cc2c(cc1OC)-c1c(OC)c(OC)cc3ccnc(c13)C2=O,active: -95%
27,CN(C)c1ccc(-c2nc3ccccn3c2/N=C/c2ccc(Br)cc2)cc1,inconclusive: -52%

row,SMILES,"activity change, negative = inhibition"
1,CCOC(=O)c1cccc(NC(=O)NCc2ccc3c(c2)CCN3C(=O)c2ccccc2)c1,inconclusive: -41.8%
2,CCn1c(SCC(=O)Nc2cccc(C)n2)nnc1-c1ccco1,inconclusive: -41%
3,O=C(CN1CCN(S(=O)(=O)c2ccccc2)CC1)Nc1ccc([N+](=O)[O-])cc1,active: -68.5%
4,Cc1ccc(-c2nnc(-n3nc(C)cc3C)c3ccccc23)cc1,inconclusive: -46.6%
5,CCOC(=O)c1ccc(-c2ccc(/C=C(\C#N)C(=O)Nc3ccc(OCC)cc3)o2)cc1,inactive: 4.93%
6,Cc1ccc(-c2cc(C(=O)N/N=C/c3c(C)nn(-c4ccccc4)c3C)[nH]n2)cc1,active: -98.5%
7,COc1cccc(N2CCN(C(=O)c3ccc(CS(=O)c4ccc(C)cc4)o3)CC2)c1 (centres undefined),inconclusive: -42.8%
8,CCOC(=O)C1(Cc2cccc(OC)c2)CCN(Cc2cccn2-c2ccccn2)CC1,inconclusive: -50.4%
9,COc1ccccc1NC(=O)c1ccc(S(=O)(=O)N(C)c2ccccc2OC)cc1,inactive: 27.4%
10,O=C1CCCC2=C1C1c3ccccc3C(=O)N1c1ccc(C(=O)c3ccccc3)cc1N2 (centres undefined),active: -76.1%
11,CCOc1ccc(/C=N/Nc2ccc(Cl)nn2)c(O)c1,active: -81.8%
12,CCCCNC(=O)CCn1nc(-c2ccc(C)cc2)c2ccccc2c1=O,active: -72.5%
13,Cc1c(Br)cccc1NC(=O)C1(C)CCN1CCc1ccccc1 (centres undefined),inconclusive: -53.4%
14,Cc1nc2ccccc2c(-c2ccccc2)c1C(=O)c1ccccc1,active: -104%
15,CN(C)S(=O)(=O)c1cccc(N=c2scc(-c3ccc4c(c3)NC(=O)CO4)n2CC2CCCO2)c1 (centres undefined),inconclusive: -57.4%
16,CCN(CC)S(=O)(=O)c1ccc(NC(=O)C2COc3ccccc3O2)cc1 (centres undefined),inconclusive: -59.5%
17,Cc1c(C2=CCN(S(=O)(=O)c3ccc(Br)cc3)CC2)c2ccccc2n1C,inconclusive: -40.1%
18,CC(C)C(=O)Nc1ccc([N+](=O)[O-])c(C(F)(F)F)c1,inconclusive: -57%
19,CCn1cc(S(=O)(=O)c2cccc(Cl)c2)c(=O)c2cc(F)c(N3CCN(c4ccccc4)CC3)cc21,inconclusive: -42.2%
20,Cc1nc2ccn(Cc3cccs3)c(=O)c2cc1C(=O)Nc1ccccc1,inactive: -31.2%
21,CCc1c(C)nc2ncnn2c1N1CCC(C(=O)N2CCN(c3ccc(F)cc3)CC2)CC1,active: -87.6%
22,Nc1c(-c2ccccc2)nc(Cl)nc1-c1ccccc1,inconclusive: -40.1%
23,COc1ccc(S(=O)(=O)N2CCOC23CCN(S(=O)(=O)c2cc(F)ccc2F)CC3)cc1,inconclusive: -49.7%
24,COc1ccc(Cc2c(O)nc(SCC(=O)c3ccc(OC)cc3)[nH]c2=O)cc1,inconclusive: -48.9%
25,Cc1c(C(=O)NC2CC2)oc2ccccc12,inconclusive: -49%
26,O=C(Nc1ccccc1Cl)c1ccc2nc(N3CCOCC3)sc2c1,inconclusive: -54.5%
27,Cc1c(C(=O)Nc2nccs2)sc2nc(-c3cccs3)cc(C(F)(F)F)c12,inconclusive: -51.9%

# Exported as tab-separated lines: 5 of the compounds above.
row	SMILES	activity change, negative = inhibition
17	Cc1c(C2=CCN(S(=O)(=O)c3ccc(Br)cc3)CC2)c2ccccc2n1C	inconclusive: -40.1%
18	CC(C)C(=O)Nc1ccc([N+](=O)[O-])c(C(F)(F)F)c1	inconclusive: -57%
19	CCn1cc(S(=O)(=O)c2cccc(Cl)c2)c(=O)c2cc(F)c(N3CCN(c4ccccc4)CC3)cc21	inconclusive: -42.2%
20	Cc1nc2ccn(Cc3cccs3)c(=O)c2cc1C(=O)Nc1ccccc1	inactive: -31.2%
21	CCc1c(C)nc2ncnn2c1N1CCC(C(=O)N2CCN(c3ccc(F)cc3)CC2)CC1	active: -87.6%
